The values below come from paper PMC5558740.

No constants are given. Whether binding was seen depends on the method and setting.

This experiment concerns the target T1, synthetic CX3CR1 peptide (aa 2-21) containing the binding region to CX3CL1.
T1 sequence (peptide): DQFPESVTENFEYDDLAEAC
Nature of the experiment: affinity chromatography; CX3CR1 peptide coupled to CNBr-activated Sepharose 4B; protein (1 mg/ml) loaded in buffer A (0.1 M Mes pH 6.4, 0.5 mM MgCl2, 2 mM EGTA); bound protein eluted with 0.5 M NaCl in buffer A; fractions read by dot immunoblot; both purified.

Take HLSNVSSTGSIDMVDSPQLATLADEV [synthetic c-terminal Tau peptide (aa 407-432)]: the binding result was “no binding (tested: 1 mg/ml)”.
